Results deposited as PubChem BioAssay AID1224829 (NIAID, 2016)

- Purpose: 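Secondary check of hits that alter LPS-induced p65 translocation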 (follow-up of hits)
- Cell system: mouse RAW264.7 G9 macrophage reporter cells
- Knock-down reagent: single siRNA against mouse genes, 100 nM
- Duration: 2 days of siRNA knock-down, then 40 min of LPS before fixing
- Treatment: LPS (Salmonella minnesota R595) at 10 ng/ml
- Detection: 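Imaging of GFP-p65 after 40 min of LPS; nuclear over perinuclear ring intensity ratio, scaled to plate median and non-targeting control wells, given as z-score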
- Direction: p65 translocation z-score and gene median z-score, per vendor: higher = more nuclear NF-kappaB p65 after LPS
- Rule for the call: 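Active means the replicate-mean z-score lies beyond plus or minus 2, in either direction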
- Calls: active = changed p65 translocation (either direction); inactive = no clear change
The deposit covers about 3,800 reagents; below is a random part of them. 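Calls cover raised and lowered translocation; gene median uses one vendor's three siRNAs; qiagen siRNAs acted more weakly than ambion siRNAs.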 Reagents against one gene are numbered here.

| p65 translocation z-score, replicate mean | p65 translocation z-score, replicate 1 | p65 translocation z-score, replicate 2 | gene median z-score, per vendor | outcome | gene knocked down | reagent | siRNA vendor or control pool |
| --- | --- | --- | --- | --- | --- | --- | --- |
| -2.73 | -4.08 | -1.37 | -1.37 | active | Cmss1 (cms small ribosomal subunit 1) | 1 | ambion single siRNA |
| 1.32 | -0.167 | 2.81 | -1.37 | inactive | Cmss1 (cms small ribosomal subunit 1) | 2 | ambion single siRNA |
| -2.12 | -2.12 | – | -1.37 | active | Cmss1 (cms small ribosomal subunit 1) | 3 | ambion single siRNA |
| 0.187 | 0.187 | – | 1.34 | inactive | Cmss1 (cms small ribosomal subunit 1) | 4 | qiagen single siRNA |
| 1.34 | 0.204 | 2.47 | 1.34 | inactive | Cmss1 (cms small ribosomal subunit 1) | 5 | qiagen single siRNA |
| 2.97 | 2.97 | – | 1.34 | active | Cmss1 (cms small ribosomal subunit 1) | 6 | qiagen single siRNA |
| -1.49 | -2.05 | -0.936 | -0.489 | inactive | Fabp6 (fatty acid binding protein 6) | 1 | ambion single siRNA |
| 1.32 | 2.69 | -0.0413 | -0.489 | inactive | Fabp6 (fatty acid binding protein 6) | 2 | ambion single siRNA |
| -0.976 | 0.701 | -2.65 | -0.489 | inactive | Fabp6 (fatty acid binding protein 6) | 3 | ambion single siRNA |
| 1.72 | 2.12 | 1.32 | -0.899 | inactive | Fabp6 (fatty acid binding protein 6) | 4 | qiagen single siRNA |
| -1.39 | -1.3 | -1.48 | -0.899 | inactive | Fabp6 (fatty acid binding protein 6) | 5 | qiagen single siRNA |
| -1.46 | -2.42 | -0.495 | -0.899 | inactive | Fabp6 (fatty acid binding protein 6) | 6 | qiagen single siRNA |
| 1.35 | 0.98 | 1.72 | 0.385 | inactive | BC051665 (cDNA sequence BC051665) | 1 | ambion single siRNA |
| 0.385 | -0.127 | 0.897 | 0.385 | inactive | BC051665 (cDNA sequence BC051665) | 2 | ambion single siRNA |
| -4.69 | -5.28 | -4.09 | 0.385 | active | BC051665 (cDNA sequence BC051665) | 3 | ambion single siRNA |
| 0.0135 | 0.255 | -0.228 | 0.0135 | inactive | BC051665 (cDNA sequence BC051665) | 4 | qiagen single siRNA |
| 1.66 | 0.727 | 2.59 | 0.0135 | inactive | BC051665 (cDNA sequence BC051665) | 5 | qiagen single siRNA |
| -1.21 | -0.966 | -1.46 | 0.0135 | inactive | BC051665 (cDNA sequence BC051665) | 6 | qiagen single siRNA |
| -2.47 | -0.795 | -4.15 | -0.615 | active | Kmt2a (lysine (K)-specific methyltransferase 2A) | 1 | qiagen single siRNA |
| 1.02 | -0.436 | 2.47 | -0.615 | inactive | Kmt2a (lysine (K)-specific methyltransferase 2A) | 2 | qiagen single siRNA |
| -0.627 | -0.206 | -1.05 | -0.615 | inactive | Kmt2a (lysine (K)-specific methyltransferase 2A) | 3 | qiagen single siRNA |
| -0.596 | 2.12 | -3.31 | -2.75 | inactive | Ap1g1 (adaptor protein complex AP-1, gamma 1 subunit) | 1 | ambion single siRNA |
| -2.14 | -2.22 | -2.06 | -2.75 | active | Ap1g1 (adaptor protein complex AP-1, gamma 1 subunit) | 2 | ambion single siRNA |
| -4 | -4.72 | -3.28 | -2.75 | active | Ap1g1 (adaptor protein complex AP-1, gamma 1 subunit) | 3 | ambion single siRNA |
| 1.77 | 1.72 | 1.82 | -0.462 | inactive | Ap1g1 (adaptor protein complex AP-1, gamma 1 subunit) | 4 | qiagen single siRNA |
| -1.23 | -0.733 | -1.73 | -0.462 | inactive | Ap1g1 (adaptor protein complex AP-1, gamma 1 subunit) | 5 | qiagen single siRNA |
| -0.714 | -0.191 | -1.24 | -0.462 | inactive | Ap1g1 (adaptor protein complex AP-1, gamma 1 subunit) | 6 | qiagen single siRNA |
| 1.84 | 3.06 | 0.617 | -1.79 | inactive | Gab1 (growth factor receptor bound protein 2-associated protein 1) | 1 | ambion single siRNA |
| – | – | – | -1.79 | inactive | Gab1 (growth factor receptor bound protein 2-associated protein 1) | 2 | ambion single siRNA |
| -4.9 | -4.19 | -5.6 | -1.79 | active | Gab1 (growth factor receptor bound protein 2-associated protein 1) | 3 | ambion single siRNA |
| 2.24 | 2.14 | 2.35 | 2.14 | active | Gab1 (growth factor receptor bound protein 2-associated protein 1) | 4 | qiagen single siRNA |
| 2.37 | 1.03 | 3.71 | 2.14 | active | Gab1 (growth factor receptor bound protein 2-associated protein 1) | 5 | qiagen single siRNA |
| 0.899 | 0.899 | – | 2.14 | inactive | Gab1 (growth factor receptor bound protein 2-associated protein 1) | 6 | qiagen single siRNA |

Laid out differently: results already given
Kmt2a (lysine (K)-specific methyltransferase 2A) #3, siRNA vendor or control pool qiagen single siRNA
- p65 translocation z-score, replicate mean: -0.627
- p65 translocation z-score, replicate 1: -0.206
- p65 translocation z-score, replicate 2: -1.05
- gene median z-score, per vendor: -0.615
- outcome: inactive

Ap1g1 (adaptor protein complex AP-1, gamma 1 subunit) #1, siRNA vendor or control pool ambion single siRNA
- p65 translocation z-score, replicate mean: -0.596
- p65 translocation z-score, replicate 1: 2.12
- p65 translocation z-score, replicate 2: -3.31
- gene median z-score, per vendor: -2.75
- outcome: inactive

Ap1g1 (adaptor protein complex AP-1, gamma 1 subunit) #2, siRNA vendor or control pool ambion single siRNA
- p65 translocation z-score, replicate mean: -2.14
- p65 translocation z-score, replicate 1: -2.22
- p65 translocation z-score, replicate 2: -2.06
- gene median z-score, per vendor: -2.75
- outcome: active

Ap1g1 (adaptor protein complex AP-1, gamma 1 subunit) #3, siRNA vendor or control pool ambion single siRNA
- p65 translocation z-score, replicate mean: -4
- p65 translocation z-score, replicate 1: -4.72
- p65 translocation z-score, replicate 2: -3.28
- gene median z-score, per vendor: -2.75
- outcome: active

Ap1g1 (adaptor protein complex AP-1, gamma 1 subunit) #4, siRNA vendor or control pool qiagen single siRNA
- p65 translocation z-score, replicate mean: 1.77
- p65 translocation z-score, replicate 1: 1.72
- p65 translocation z-score, replicate 2: 1.82
- gene median z-score, per vendor: -0.462
- outcome: inactive

Ap1g1 (adaptor protein complex AP-1, gamma 1 subunit) #5, siRNA vendor or control pool qiagen single siRNA
- p65 translocation z-score, replicate mean: -1.23
- p65 translocation z-score, replicate 1: -0.733
- p65 translocation z-score, replicate 2: -1.73
- gene median z-score, per vendor: -0.462
- outcome: inactive

Ap1g1 (adaptor protein complex AP-1, gamma 1 subunit) #6, siRNA vendor or control pool qiagen single siRNA
- p65 translocation z-score, replicate mean: -0.714
- p65 translocation z-score, replicate 1: -0.191
- p65 translocation z-score, replicate 2: -1.24
- gene median z-score, per vendor: -0.462
- outcome: inactive

Gab1 (growth factor receptor bound protein 2-associated protein 1) #1, siRNA vendor or control pool ambion single siRNA
- p65 translocation z-score, replicate mean: 1.84
- p65 translocation z-score, replicate 1: 3.06
- p65 translocation z-score, replicate 2: 0.617
- gene median z-score, per vendor: -1.79
- outcome: inactive

Gab1 (growth factor receptor bound protein 2-associated protein 1) #2, siRNA vendor or control pool ambion single siRNA
- gene median z-score, per vendor: -1.79
- outcome: inactive

The list goes on:
| p65 translocation z-score, replicate mean | p65 translocation z-score, replicate 1 | p65 translocation z-score, replicate 2 | gene median z-score, per vendor | outcome | gene knocked down | reagent | siRNA vendor or control pool |
| --- | --- | --- | --- | --- | --- | --- | --- |
| -9.58 | -9.82 | -9.33 | -2.8 | active | Cck (cholecystokinin) | 1 | ambion single siRNA |
| -2.76 | -2.71 | -2.8 | -2.8 | active | Cck (cholecystokinin) | 2 | ambion single siRNA |
| -1.87 | -1.87 | – | -2.8 | inactive | Cck (cholecystokinin) | 3 | ambion single siRNA |
| -0.974 | -0.867 | -1.08 | -0.974 | inactive | Cck (cholecystokinin) | 4 | qiagen single siRNA |
| -0.129 | -0.557 | 0.299 | -0.974 | inactive | Cck (cholecystokinin) | 5 | qiagen single siRNA |
| -2.9 | -1.58 | -4.23 | -0.974 | active | Cck (cholecystokinin) | 6 | qiagen single siRNA |
| 0.131 | -0.164 | 0.425 | -0.252 | inactive | Dap3 (death associated protein 3) | 1 | ambion single siRNA |
| 0.457 | 1.25 | -0.341 | -0.252 | inactive | Dap3 (death associated protein 3) | 2 | ambion single siRNA |
| -4.59 | -5.68 | -3.49 | -0.252 | active | Dap3 (death associated protein 3) | 3 | ambion single siRNA |
| 0.755 | -0.169 | 1.68 | 0.888 | inactive | Dap3 (death associated protein 3) | 4 | qiagen single siRNA |
| 0.891 | 0.0964 | 1.68 | 0.888 | inactive | Dap3 (death associated protein 3) | 5 | qiagen single siRNA |
| 1.43 | -0.493 | 3.36 | 0.888 | inactive | Dap3 (death associated protein 3) | 6 | qiagen single siRNA |
| 2.85 | 5.82 | -0.112 | -4.41 | active | Vmn1r6 (vomeronasal 1 receptor 6) | 1 | ambion single siRNA |
| -4.67 | -4.02 | -5.32 | -4.41 | active | Vmn1r6 (vomeronasal 1 receptor 6) | 2 | ambion single siRNA |
| -5.65 | -4.8 | -6.49 | -4.41 | active | Vmn1r6 (vomeronasal 1 receptor 6) | 3 | ambion single siRNA |
| -2.77 | -3.01 | -2.52 | -2.59 | active | Ppm1l (protein phosphatase 1 (formerly 2C)-like) | 1 | ambion single siRNA |
| -1.07 | -0.604 | -1.53 | -2.59 | inactive | Ppm1l (protein phosphatase 1 (formerly 2C)-like) | 2 | ambion single siRNA |
| -4.02 | -2.67 | -5.38 | -2.59 | active | Ppm1l (protein phosphatase 1 (formerly 2C)-like) | 3 | ambion single siRNA |
| 0.00312 | -1.32 | 1.32 | 0.609 | inactive | Ppm1l (protein phosphatase 1 (formerly 2C)-like) | 4 | qiagen single siRNA |
| 1.43 | 0.326 | 2.53 | 0.609 | inactive | Ppm1l (protein phosphatase 1 (formerly 2C)-like) | 5 | qiagen single siRNA |
| 0.00712 | 0.891 | -0.877 | 0.609 | inactive | Ppm1l (protein phosphatase 1 (formerly 2C)-like) | 6 | qiagen single siRNA |
